Results from patent US20150246067A1, “ANTIVIRAL TREATMENT OF LYMPHOMA AND CANCER” (THE REGENTS OF THE UNIVERSITY OF MICHIGAN, priority 2009, published 2015).
At least one structure is not confirmed: it was looked up by name or label, or the drawing left a doubt.

Test system: HERV K (HML2)
Assay: Reverse transcriptase activity in supernatants of drug-treated NCCIT cells (Reverse Transcription Assay Kit)
Format: cell-based, human
Details: 7 days, increasing doses of drug, supernatant, FIGS. 4A-I
Protocol: HIV antivirals were assayed to determine which antiviral agents have an antiviral effect against HERV K (HML2). The NCCIT cell line derived from a teratocarcinoma produces many HERV K (HML2) viral particles. NCCIT cells were maintained at 40% confluence in 6-well plates in RPMI medium and incubated for 7 days in the presence of increasing doses of nucleoside or non-nucleoside reverse transcriptase inhibitors or HIV protease inhibitors. Drugs, provided as lyophilized powders by the AIDS Research and Reference Reagent Program, were resuspended to a final concentration of 10 mg/mL (except for PFA: 60 mg/mL) in different solvents as recommended (SEE table 1). Cells were incubated for 7 days at increasing doses of drugs or the vehicle of solution as controls. Supernatants were collected and cell debris was removed by centrifugation at 2300 rpm for 20 min. Supernatant was assessed for Reverse Transcriptase Activity using the Reverse Transcription Assay Kit (Invitrogen) as described by the manufacturer. […] The HERV-K type 2 viral load was measured by quantitative Real Time RT-PCR using primers that expand the type-2 env gene region, which is absent in type-1 viruses, Kenv type2F: 5′-[…]-3′ (SEQ ID NO. 1), and Kenv type2R: 5′-[…]-3′ (SEQ ID NO. 2). […] In a similar way, quantities of HERV—K type 2 proviruses were measured by Real Time PCR using 500 ng of isolated DNA.

Nc1ccn([C@@H]2CS[C@H](CO)O2)c(=O)n1 [lamivudine, Lamivudine]
HERV K (HML2) RT activity: reduction
